Experimental data published in paper PMC10679541.
These are yes or no findings as the source states them, for the method shown. Binding seen in cells or lysates may run through a third protein. Some results given as binding are weak or reduced against the parent protein; the word gives no strength. Tags and fused reporters may be left off the sequences shown.

T1: STAG1 with a C-terminal NeonGreen-v5-FKBP tag (SA1^NG-FKBP) (mouse (endogenous in mESCs)) (UniProt Q9D3E6)
T1 sequence: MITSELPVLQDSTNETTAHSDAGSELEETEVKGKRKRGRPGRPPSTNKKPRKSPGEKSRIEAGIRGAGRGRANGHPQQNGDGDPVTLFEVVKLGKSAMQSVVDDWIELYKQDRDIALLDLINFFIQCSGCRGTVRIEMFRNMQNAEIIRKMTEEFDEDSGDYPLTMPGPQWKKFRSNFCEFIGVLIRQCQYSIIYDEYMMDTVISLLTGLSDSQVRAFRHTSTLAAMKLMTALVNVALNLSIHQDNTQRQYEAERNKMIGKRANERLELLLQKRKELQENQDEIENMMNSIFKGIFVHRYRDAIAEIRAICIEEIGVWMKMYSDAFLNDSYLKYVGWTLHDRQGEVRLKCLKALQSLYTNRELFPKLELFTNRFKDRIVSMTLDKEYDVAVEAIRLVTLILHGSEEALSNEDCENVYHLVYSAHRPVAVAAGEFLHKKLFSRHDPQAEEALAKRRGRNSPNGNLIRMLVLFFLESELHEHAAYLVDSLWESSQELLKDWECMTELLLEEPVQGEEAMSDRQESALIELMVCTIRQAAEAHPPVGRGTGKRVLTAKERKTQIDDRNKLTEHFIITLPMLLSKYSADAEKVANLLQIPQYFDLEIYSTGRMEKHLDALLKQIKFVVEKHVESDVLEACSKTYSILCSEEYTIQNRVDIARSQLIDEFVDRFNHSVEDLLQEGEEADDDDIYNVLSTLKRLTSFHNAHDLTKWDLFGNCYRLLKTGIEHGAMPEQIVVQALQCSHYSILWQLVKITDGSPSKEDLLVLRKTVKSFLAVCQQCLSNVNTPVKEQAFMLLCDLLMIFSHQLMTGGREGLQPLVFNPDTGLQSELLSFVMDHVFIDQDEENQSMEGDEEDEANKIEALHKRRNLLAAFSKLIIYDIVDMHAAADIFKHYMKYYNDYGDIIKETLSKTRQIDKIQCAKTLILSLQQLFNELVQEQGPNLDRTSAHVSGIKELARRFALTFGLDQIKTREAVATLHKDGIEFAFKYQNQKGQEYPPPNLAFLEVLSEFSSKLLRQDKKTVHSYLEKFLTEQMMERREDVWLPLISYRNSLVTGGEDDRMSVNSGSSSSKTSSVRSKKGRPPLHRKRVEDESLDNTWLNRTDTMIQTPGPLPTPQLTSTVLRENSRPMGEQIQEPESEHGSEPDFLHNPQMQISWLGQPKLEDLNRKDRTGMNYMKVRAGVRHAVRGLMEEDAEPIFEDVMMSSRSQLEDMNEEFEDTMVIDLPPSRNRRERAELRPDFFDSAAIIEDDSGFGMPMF

T2: STAG1 with a C-terminal NeonGreen-v5-FKBP tag (SA1^NG-FKBP) (mouse (endogenous in mESCs)), Q9D3E6
T2 chain: T1 sequence

B1: RAD21 (protein, UniProt Q61550 1-635)
chain: MFYAHFVLSKRGPLAKIWLAAHWDKKLTKAHVFECNLESSVESIISPKVKMALRTSGHLLLGVVRIYHRKAKYLLADCNEAFIKIKMAFRPGVVDLPEENREAAYNAITLPEEFHDFDQPLPDLDDIDVAQQFSLNQSRVEEITMREEVGNISILQENDFGDFGMDDREIMREGSAFEDDDMLVSTSASNLLLEPEQSTSNLNEKMNHLEYEDQYKDDNFGEGNDGGILDDKLISNNDGGIFDDPPALSEAGVMLPEQPAHDDMDEDDNGSLGGPDSPDSVDPVEPMPTMTDQTTLVPNEEEAFALEPIDITVKETKAKRKRKLIVDSVKELDSKTIRAQLSDYSDIVTTLDLAPPTKKLMMWKETGGVEKLFFLPAQPLWNNRLLKLFTRCLTPLVPEDLRKRRKGGEADNLDEFLKEFENPEVPREEQQPQQQQPQPQRDVIDEPIIEEPSRLQDSVMEASRTTIEESAMPPPPPQGVKRKAGQIDPEPSIPPQQVEQMEIPPVELPPEEPPNICQLIPELELLPEKEKEKEKEKEEEEEEEDEDASGGDQDQEERRWNKRTQQMLHGLQRALAKTGAESISLLELCRNTNRKQAAAKFYSFLVLKKQQAIELTQEEPYSDIIATPGPRFHII
B2: SMC3, Q9CW03 1-1217 (protein)
chain: MYIKQVIIQGFRSYRDQTIVDPFSSKHNVIVGRNGSGKSNFFYAIQFVLSDEFSHLRPEQRLALLHEGTGPRVISAFVEIIFDNSDNRLPIDKEEVSLRRVIGAKKDQYFLDKKMVTKNDVMNLLESAGFSRSNPYYIVKQGKINQMATAPDSQRLKLLREVAGTRVYDERKEESISLMKETEGKREKINELLKYIEERLHTLEEEKEELAQYQKWDKMRRALEYTIYNQELNETRAKLDELSAKRETSGEKSRQLRDAQQDARDKMEDIERQVRELKTKISAMKEEKEQLSAERQEQIKQRTKLELKAKDLQDELAGNSEQRKRLLKERQKLLEKIEEKQKELAETEPKFNSVKEKEERGIARLAQATQERTDLYAKQGRGSQFTSKEERDKWIKKELKSLDQAINDKKRQIAAIHKDLEDTEANKEKNLEQYNKLDQDLNEVKARVEELDRKYYEVKNKKDELQSERNYLWREENAEQQALAAKREDLEKKQQLLRAATGKAILNGIDSINKVLEHFRRKGINQHVQNGYHGIVMNNFECEPAFYTCVEVTAGNRLFYHIVDSDEVSTKILMEFNKMNLPGEVTFLPLNKLDVRDTAYPETNDAIPMISKLRYNPRFDKAFKHVFGKTLICRSMEVSTQLARAFTMDCITLEGDQVSHRGALTGGYYDTRKSRLELQKDVRKAEEELGELEAKLNENLRRNIERINNEIDQLMNQMQQIETQQRKFKASRDSILSEMKMLKEKRQQSEKTFMPKQRSLQSLEASLHAMESTRESLKAELGTDLLSQLSLEDQKRVDALNDEIRQLQQENRQLLNERIKLEGIITRVETYLNENLRKRLDQVEQELNELRETEGGTVLTATTSELEAINKRVKDTMARSEDLDNSIDKTEAGIKELQKSMERWKNMEKEHMDAINHDTKELEKMTNRQGMLLKKKEECMKKIRELGSLPQEAFEKYQTLSLKQLFRKLEQCNTELKKYSHVNKKALDQFVNFSEQKEKLIKRQEELDRGYKSIMELMNVLELRKYEAIQLTFKQVSKNFSEVFQKLVPGGKATLVMKKGDVEGSQSQDEGEGSGESERGSGSQSSVPSVDQFTGVGIRVSFTGKQGEMREMQQLSGGQKSLVALALIFAIQKCDPAPFYLFDEIDQALDAQHRKAVSDMIMELAVHAQFITTTFRPELLESADKFYGVKFRNKVSHIDVITAEMAKDFVEDDTTHG

What was measured:
[1] = target: T1, STAG1 with a C-terminal NeonGreen-v5-FKBP tag (SA1^NG-FKBP) (mouse (endogenous in mESCs)); assay: co-IP; immunoprecipitation from chromatin with an N-terminal Stag1 antibody (Ab4455) in SA1^NG-FKBP mESCs treated with DMSO or dTAG, western blot for RAD21, SMC3 and NCL
[2] = target: T2, STAG1 with a C-terminal …; assay: as above; conditions: remark: other sources report otherwise

Binder | binding [1] | binding [2]
B1 | binds | 
B2 |  | binds
